In all, about 33,000 sequences were measured (“E-score (-0.5 to 0.5)”: median about -0.016, highest 2% from about 0.3 on). This is one part of the list.
The sequences below were run against T1, Yer184c (UniProt P39961) (assay: PBM E-score (8-mer binding enrichment) (E-score (-0.5 to 0.5)); higher = stronger / more preferred TF binding). Conditions: protein concentration: 100 nM; construct: GST-full length.
T1 sequence: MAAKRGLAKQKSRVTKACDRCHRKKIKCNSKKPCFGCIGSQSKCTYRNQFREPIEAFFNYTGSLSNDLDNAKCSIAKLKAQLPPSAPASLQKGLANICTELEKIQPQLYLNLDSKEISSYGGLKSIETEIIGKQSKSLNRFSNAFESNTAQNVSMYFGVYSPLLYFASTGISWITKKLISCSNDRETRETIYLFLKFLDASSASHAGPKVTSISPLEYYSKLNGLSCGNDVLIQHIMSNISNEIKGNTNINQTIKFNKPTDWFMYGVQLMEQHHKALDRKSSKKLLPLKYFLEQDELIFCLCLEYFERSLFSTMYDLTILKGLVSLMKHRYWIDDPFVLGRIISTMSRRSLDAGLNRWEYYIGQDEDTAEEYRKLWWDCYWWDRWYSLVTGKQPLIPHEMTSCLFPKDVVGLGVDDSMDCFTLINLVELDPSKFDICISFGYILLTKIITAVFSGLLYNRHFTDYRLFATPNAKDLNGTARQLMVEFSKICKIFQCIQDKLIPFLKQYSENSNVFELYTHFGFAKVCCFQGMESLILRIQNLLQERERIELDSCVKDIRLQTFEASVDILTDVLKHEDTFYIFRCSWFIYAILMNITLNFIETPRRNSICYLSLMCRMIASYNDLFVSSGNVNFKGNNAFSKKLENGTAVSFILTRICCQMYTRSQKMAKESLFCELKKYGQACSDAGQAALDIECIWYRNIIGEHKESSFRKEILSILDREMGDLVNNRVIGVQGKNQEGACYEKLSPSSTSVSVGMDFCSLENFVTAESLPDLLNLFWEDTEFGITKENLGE
In short: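 Universal all-10-mer Agilent arrays, double-stranded by primer extension on fresh or once-stripped slides, were probed with about 100-200 nM GST-tagged yeast transcription factors made by PURExpress. Fluorescent anti-GST detected bound protein, and masliner normalised the scans. E-scores from the Universal PBM Analysis Suite were given to each ungapped eight-base word pooled with its reverse complement.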

Point of comparison: CCGTATAA, “PBM E-score” value 0.252. Against it:
- CTGCCAGC — lower, -0.0493
- CCAGAGTA — lower, -0.0969
- GGAGAGTA — lower, -0.072
- TCTTAGAA — higher, 0.282
- CACTTATA — lower, 0.00196
- AATCCACT — lower, 0.106
- GCCTCGCA — lower, -0.306
- CATGTAAG — lower, 0.0168
- CTAAGGCC — lower, -0.0325
- ACGTGTCT — lower, -0.249
- CCGAGGAA — higher, 0.265
- AGGATTGG — lower, -0.0536
- CCCAACCG — lower, -0.0966
- CACAAGTA — lower, -0.128
- AACCGCTC — lower, -0.0977
- AGAGATCG — lower, 0.00172
- AGAAGCAA — lower, 0.0666
- ACAAATAG — lower, 0.145
- CACCCCAA — lower, -0.136
- CCCGTTTA — lower, 0.0848
- AAATCGTT — lower, 0.0706
- CCAGGCAG — lower, -0.111
- CCCTGCCA — lower, -0.059
- CAGTCAGA — lower, -0.212
- CCGGGGGC — lower, 0.0635
- ACAGAGCT — lower, -0.214
- ACGTTTTA — lower, 0.0304
- GACTATAC — lower, 0.0413
- TACCTTAA — lower, 0.0713
- GTGTAAAA — lower, 0.0916
- ATGCGGGA — lower, 0.234
- CTCCTATC — lower, -0.228
- ATTTTAAA — higher, 0.331
- AAGTAGGT — lower, -0.161
- GGTATTGA — lower, -0.0533
- GCCTTTAC — lower, 0.00277
- AATACACT — lower, 0.186
- GGTCTATA — lower, -0.16
- CTTGCCAC — lower, -0.116
- GTTGGGCA — lower, -0.143
- AGTGCTTA — lower, -0.141
- AGTGGGCC — lower, -0.325
- ATGTTCTG — lower, 0.0622
- CCATTCCG — lower, 0.134
- TCAAACAA — lower, 0.226
- CTTTGAAC — lower, 0.0199
- AAGTCAAG — lower, -0.273
- CGGATTGC — lower, 0.147
- CACTTCAC — lower, 0.0219
- AGCGCAAC — lower, 0.02
- GGGTACCA — lower, -0.302
- ATCGCCTA — lower, -0.112
- ACAGAGTA — lower, 0.0994
- ATCCAGAA — lower, 0.192
- GAGAAATA — lower, 0.201
- AATAAGGC — lower, -0.0802
- ATTAAGAA — lower, 0.183
- CGGTCGAA — lower, 0.148
- GCATTAGC — lower, -0.0819
- GGACCTCC — lower, -0.128
- ATTCTCCC — lower, 0.0626
- CAGTCTGA — lower, -0.134
- GAGCCGGC — higher, 0.406
- TCATGAAA — lower, -0.0304
- AGTTTATG — lower, 0.0601
- CACCTCTC — lower, -0.422
- CTAAGATA — lower, -0.0939
- CAGTTCGG — higher, 0.278
- ATGTGTCG — lower, -0.0246
- CGTGAGCC — lower, -0.181
- GTTTTCGA — lower, 0.0208
- CATTGGTC — lower, -0.157
- CACAAATC — lower, 0.0459
- GGGGTGGA — lower, -0.253
- AACGAAAG — lower, 0.0872
- AAAGTTCC — lower, -0.0249
- TCTACAAA — lower, 0.0103
- ACTTGAGA — lower, -0.122
- AATGTAGT — lower, -0.00611
- AATCTTAT — lower, 0.135
- AACATGTA — lower, 0.125
- ACTTTCCG — higher, 0.283
- AGCAATAC — lower, -0.0448
- ATCAATTA — higher, 0.289
- ACCTTGGG — lower, -0.0755
- AGGTGGCG — lower, -0.23
- TGTGTGAA — lower, -0.00139
- AAGACCTA — lower, 0.0922
- ACAGCGCC — lower, 0.0141
- ACAGGTCA — lower, -0.198
- CTCGGGTA — lower, 0.17
- CGCCCGTC — lower, 0.0863
- AATACGGG — lower, -0.0849
- GTGTACTA — lower, 3e-05
- GTCGGAAA — higher, 0.318
- GCGCCGCC — lower, 0.122
- ATTCTACG — lower, 0.0509
- GTAAGGTA — lower, 0.103
- GATGCGTA — lower, -0.0625
- CAGTTCTC — lower, -0.0246
- AGAGGAAT — lower, -0.0733
- CAAGCTTG — lower, -0.131
- ATGCCCTG — lower, -0.147
- AGACTTTC — lower, 0.0167
- CTATCTCA — lower, 0.0431
- AAACCCCC — lower, -0.354
- ACATAATC — lower, 0.0975
- ATGAGCCG — lower, 0.066

Reference: the supplement of paper PMC3334620
